In the test the test system is OVCAR8. Nature of the test: cell count relative to DMSO vehicle (fold change); higher = more surviving senescent cells (less killing). The following applies: senescence inducer: cisplatin 10 µM 48 h, then 6 d recovery (CP senescent), exposure time 24 h.

Each structure is given as a SMILES string. Structures can show the parent of a compound that is named as a salt. ± gives the standard deviation of the averaged measurements. This is one part of the list. Repeats in this data set agree poorly, so a single value says little.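 Cell counts came from imaging DAPI-stained nuclei, excluding as dead any cells lacking phalloidin-stained cytoplasm. Counts per well were normalized to the median vehicle-well count on that plate, and the values were averaged over two replicate plates.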

As to `CC1(C)CC[C@]2(C(=O)n3cnc(-c4cccnc4)c3)CC[C@]3(C)[C@H](C(=O)C=C4[C@@]5(C)C=C(C#N)C(=O)C(C)(C)[C@@H]5CC[C@]43C)[C@@H]2C1`, the cell count is, setting by setting: (compound dose 1 µM) 0.216 ± 0.04; (compound dose 5 µM) 0.0195 ± 0.011.

With `Clc1ccc(Nc2nnc(Cc3ccncc3)c3ccccc23)cc1` [Vatalanib (PTK787) 2HCl], the cell count runs as follows: (compound dose 1 µM) 0.908 ± 0.12; (compound dose 5 µM) 0.776 ± 0.028.

As to `C/C=C1\[C@H]2C=C(C)C[C@]1(N)c1ccc(=O)[nH]c1C2` [(-)-Huperzine A], the cell count is, setting by setting: (compound dose 1 µM) 0.608 ± 0.076; (compound dose 5 µM) 0.448 ± 0.087.

For the molecule `CCOC(=O)[C@H](CCc1ccccc1)N[C@@H](C)C(=O)N1Cc2cc(OC)c(OC)cc2C[C@H]1C(=O)O` [Moexipril (hydrochloride)], the cell count came out at 0.842 ± 0.072 (compound dose 1 µM) and 0.439 ± 0.073 (compound dose 5 µM).

On to `COc1cc(/C=C/C(=O)CC(=O)/C=C/c2ccc(O)c(OC)c2)ccc1O`, for which the cell count stood at 0.727 ± 0.27 (compound dose 1 µM) and 0.57 ± 0.1 (compound dose 5 µM).

As for `O=C1C(SCCO)=C(SCCO)C(=O)c2ccccc21`, the cell count (compound dose 1 µM) was 1.13 ± 0.052 and the cell count (compound dose 5 µM) came to 0.0775 ± 0.052.

Molecule `COC(=O)CC(NC(=O)OC(C)(C)C)C(=O)CF` (configuration not stated) registered a cell count (compound dose 1 µM) of 0.729 ± 0.03 and a cell count (compound dose 5 µM) of 0.473 ± 0.18.

With `CC/C(=C(\c1ccccc1)c1ccc(OCCN(C)C)cc1)c1ccccc1` [Tamoxifen (Citrate)], the cell count reads like this: (compound dose 1 µM) 0.961 ± 0.12; (compound dose 5 µM) 0.55 ± 0.071.

As for `CCc1oc2ccccc2c1C(=O)c1cc(Br)c(O)c(Br)c1`, the cell count was 1.12 ± 0.077 (compound dose 1 µM) and 1.21 ± 0.2 (compound dose 5 µM).

As for `Cn1cc(-c2ccc(S(=O)(=O)n3ccc(/C=C/C(=O)Nc4ccccc4N)c3)cc2)cn1`, the cell count was determined as 1.08 ± 0.13 (compound dose 1 µM) and 0.871 ± 0.056 (compound dose 5 µM).

As for `CC(C)c1cccc(C(C)C)c1NC(=O)NCC1(c2ccc(N(C)C)cc2)CCCC1` [Nevanimibe hydrochloride], the cell count reads like this: (compound dose 1 µM) 0.991 ± 0.12; (compound dose 5 µM) 1.03 ± 0.11.

Consider `CCN(CCCOc1ccc2c(Nc3cc(CC(=O)Nc4cccc(F)c4)[nH]n3)ncnc2c1)CCOP(=O)(O)O` [Barasertib (AZD1152-HQPA)], for which the cell count by setting is: (compound dose 1 µM) 1.23 ± 0.2; (compound dose 5 µM) 1.16 ± 0.061.

`CCN(CCCOc1ccc2c(Nc3cc(CC(=O)Nc4cccc(F)c4)[nH]n3)ncnc2c1)CCOP(=O)(O)O` [Barasertib]: the cell count runs as follows: (compound dose 1 µM) 1.3 ± 0.33; (compound dose 5 µM) 0.98 ± 0.2.

Consider `CN(C)CCCCC(=O)Nc1ccc(NC(=S)NC(=O)c2ccc(C(C)(C)C)cc2)cc1` [Tenovin-6], for which the cell count stood at 0.991 ± 0.029 (compound dose 1 µM) and 0.871 ± 0.063 (compound dose 5 µM).

As for `COc1cc2ncnc(Nc3ccc(F)c(Cl)c3)c2cc1OCCCN1CCOCC1` [Gefitinib (ZD1839)], the cell count is, setting by setting: (compound dose 1 µM) 0.809 ± 0.089; (compound dose 5 µM) 0.5485 ± 0.005.

Take `CN[C@@H](C)C(=O)N[C@H](C(=O)N1CCC[C@H]1C(=O)Nc1sc(-c2ncco2)nc1-c1ccccc1)C1CCCCC1`: the cell count reads like this: (compound dose 1 µM) 0.37 ± 0.083; (compound dose 5 µM) 0.144 ± 0.054.

Consider `COC(=O)[C@]12CCC(C)(C)C[C@H]1[C@H]1C(=O)C=C3[C@@]4(C)C=C(C#N)C(=O)C(C)(C)[C@@H]4CC[C@@]3(C)[C@]1(C)CC2` [Bardoxolone methyl], for which the cell count by setting is: (compound dose 1 µM) 0.0875 ± 0.019; (compound dose 5 µM) 0.0245 ± 0.0078.

For the molecule `CC(C)Cc1ccc(C(C)C(=O)O)cc1` (configuration not stated), the cell count runs as follows: (compound dose 1 µM) 0.877 ± 0.054; (compound dose 5 µM) 0.481 ± 0.37.

In the case of `CN(C(=O)c1c(O)c2ccccc2n(C)c1=O)c1ccccc1` [Roquinimex], the cell count by setting is: (compound dose 1 µM) 1.09 ± 0.18; (compound dose 5 µM) 0.761 ± 0.17.

As for `Cc1ccc(S(=O)(=O)Nc2cc(-c3ccc(C#N)s3)ccc2C)cc1`, the cell count was 0.809 ± 0.2 (compound dose 1 µM) and 0.877 ± 0.011 (compound dose 5 µM).

On to `Cc1ncc(COP(=O)([O-])[O-])c(CN(CCN(CC(=O)O)Cc2c(COP(=O)([O-])O)cnc(C)c2O)CC(=O)O)c1O.[Mn].[Na+].[Na+].[Na+]`, for which the cell count by setting is: (compound dose 1 µM) 0.871 ± 0.066; (compound dose 5 µM) 0.59 ± 0.32.

Regarding `O=c1c(O)c(-c2ccc(O)c(O)c2)oc2cc(O)cc(O)c12` [Quercetin], the cell count by setting is: (compound dose 1 µM) 1.24 ± 0.16; (compound dose 5 µM) 1.12 ± 0.2.

Regarding `COc1ccc(C2=N[C@H](c3ccc(Cl)cc3)[C@H](c3ccc(Cl)cc3)N2C(=O)N2CCNC(=O)C2)c(OC(C)C)c1` [Nutlin-3b], the cell count reads like this: (compound dose 1 µM) 0.712 ± 0.022; (compound dose 5 µM) 0.56 ± 0.18.

Consider `CCCCCOC(=O)Nc1nc(=O)n([C@@H]2O[C@H](C)[C@@H](O)[C@H]2O)cc1F` [Capecitabine], for which the cell count (compound dose 1 µM) was 1 ± 0.072 and the cell count (compound dose 5 µM) is 0.976 ± 0.1.

Turning to `CN(C)CC[C@H](CSc1ccccc1)Nc1ccc(S(=O)(=O)NC(=O)c2ccc(N3CCC(C)(C)CC3)cc2)cc1[N+](=O)[O-]`, the cell count (compound dose 1 µM) turned out to be 1.23 ± 0.064 and the cell count (compound dose 5 µM) was determined as 0.625 ± 0.19.

In turn, `NC(=O)c1ccc(-c2cc(-c3ccc([N+](=O)[O-])cc3)nc(-c3ccco3)c2)cc1` came in with a cell count (compound dose 1 µM) of 1.18 ± 0.05 and a cell count (compound dose 5 µM) of 1.06 ± 0.24.

On to `Nc1c(C(=O)NCc2ccc(C(=O)NCCCC3CCCCC3)cc2)cnn1-c1ccccc1`, for which the cell count by setting is: (compound dose 1 µM) 1.28 ± 0.058; (compound dose 5 µM) 1.05 ± 0.0035.

As to `CC(O)(P(=O)(O)O)P(=O)(O)O` [Etidronic acid], the cell count was determined as 1.01 ± 0.028 (compound dose 1 µM) and 1.052 ± 0.0071 (compound dose 5 µM).

For `CC[C@@H]1/C=C(\C)C[C@H](C)C[C@H](OC)[C@H]2O[C@@](O)(C(=O)C(=O)N3CCCC[C@H]3C(=O)O[C@H](/C(C)=C/[C@@H]3CC[C@@H](O)[C@H](OC)C3)[C@H](C)[C@@H](O)CC1=O)[C@H](C)C[C@@H]2OC` [Ascomycin], the cell count reads like this: (compound dose 1 µM) 0.96 ± 0.2; (compound dose 5 µM) 0.806 ± 0.042.

Turning to `COc1ccc(N2C(=O)/C(=C\c3ccc([N+](=O)[O-])s3)SC2=S)cc1`, the cell count is, setting by setting: (compound dose 1 µM) 0.583 ± 0.053; (compound dose 5 µM) 0.338 ± 0.2.

As for `C/C=C(/C)C(=O)O[C@H]1[C@H](OC(C)=O)[C@@]2(CO)C(CC1(C)C)C1=CCC3[C@@]4(C)CCC(O[C@@H]5O[C@H](C(=O)O)[C@@H](O[C@@H]6O[C@H](CO)[C@@H](O)[C@H](O)[C@H]6O)[C@H](O)[C@H]5O[C@@H]5O[C@H](CO)[C@@H](O)[C@H](O)[C@H]5O)[C@](C)(CO)C4CC[C@@]3(C)[C@]1(C)C[C@H]2O.C/C=C(\C)C(=O)O[C@H]1[C@H](OC(C)=O)[C@@]2(CO)C(CC1(C)C)C1=CCC3[C@@]4(C)CCC(O[C@@H]5O[C@H](C(=O)O)[C@@H](O[C@@H]6O[C@H](CO)[C@@H](O)[C@H](O)[C@H]6O)[C@H](O)[C@H]5O[C@@H]5O[C@H](CO)[C@@H](O)[C@H](O)[C@H]5O)[C@](C)(CO)C4CC[C@@]3(C)[C@]1(C)C[C@H]2O` (some centres not stated) [Escin], the cell count by setting is: (compound dose 1 µM) 1.18 ± 0.12; (compound dose 5 µM) 0.827 ± 0.32.

Consider `Cc1cc(Nc2cc(N3CCN(C)CC3)nc(/C=C/c3ccccc3)n2)n[nH]1`, for which the cell count reads like this: (compound dose 1 µM) 1.473 ± 0.0071; (compound dose 5 µM) 0.863 ± 0.0028.

`Cc1cc(Nc2cc(N3CCN(C)CC3)nc(/C=C/c3ccccc3)n2)n[nH]1` [ENMD-2076 L-(+)-Tartaric acid] yielded a cell count (compound dose 1 µM) of 1.1 ± 0.042 and a cell count (compound dose 5 µM) of 0.694 ± 0.18.

For the molecule `COc1ccc(C2CC(c3ccccc3)=NN2c2ccc(S(N)(=O)=O)cc2)cc1` (configuration not stated), the cell count (compound dose 1 µM) was 0.975 ± 0.078 and the cell count (compound dose 5 µM) was 0.959 ± 0.35.

`CCCCOc1nc(N)c2c(n1)N(Cc1cccc(CN3CCCC3)c1)CC(=O)N2` [Vesatolimod] gave a cell count (compound dose 1 µM) of 0.739 ± 0.033 and a cell count (compound dose 5 µM) of 0.759 ± 0.1.

Turning to `CN(C)c1cccc(-c2c3c(=O)n(-c4ccccc4Cl)[nH]c3cc(=O)n2C)c1` [Setanaxib], the cell count is 1.03 ± 0.079 (compound dose 1 µM) and 0.581 ± 0.5 (compound dose 5 µM).

Source of the values: the supplement of paper PMC12462457.
